This note sets out measurements from patent US5891859.

The chains behind the UniProt entries cited, without tags or fusion partners.
UniProt P93835, whole entry N143D: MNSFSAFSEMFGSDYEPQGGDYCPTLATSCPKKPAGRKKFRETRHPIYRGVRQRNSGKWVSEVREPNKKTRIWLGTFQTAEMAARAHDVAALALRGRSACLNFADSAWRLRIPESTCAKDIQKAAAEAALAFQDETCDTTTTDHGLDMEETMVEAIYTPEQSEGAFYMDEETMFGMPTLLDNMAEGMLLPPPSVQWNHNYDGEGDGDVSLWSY

For some assays here: Negatives hold for the conditions tested. For some assays here: At least one result comes from cells or an extract, where the contact may be indirect.

In data set [1] the target is CBF1 (24 kDa polypeptide) (Arabidopsis thaliana) (UniProt P93835). Briefly: one hybrid. Conditions: protein in cells.
In data set [2] the target is CBF1 (Arabidopsis thaliana) (UniProt P93835). Kind of data set: EMSA. Conditions: dimer probe 1 ng; 15 mM HEPES pH 7.9, 1 mM EDTA, 30 mM KCl, poly(dI-dC), room temperature; no shift with BSA, vector or antisense extracts; protein in a lysate after overexpression; label: 32P (end-filled, dimer probe). (In general: In EMSA bound probe runs differently from free probe, usually more slowly.)

Regarding “GATCATTTCATGGTATGTCTGCTTTTT (double strand) [MT80 M2COR15a]”, in data set [1] (dimer UAS-lacZ reporter in yeast not activated, variant of MT50 COR15a C-repeat/DRE), the “activity on this sequence” value was “not active”.

Regarding “GATCATTTCATGGCCGACCTGCTTTTT (double strand) [MT50 COR15a C-repeat/DRE]”, in data set [2], the binding result was “binds”. Further, the “activity on this sequence” value in data set [1] (dimer UAS-lacZ reporter in yeast activated, label: 32P (end-filled, dimer probe)) is given as “active”.

For the sequence “GATCAATATACTACCGACATGAGTTCT (double strand) [MT66 COR78-1 C-repeat/DRE]”, the “activity on this sequence” value in data set [1] (dimer of MT66, lacZ reporter) was “active”.

On to “GATCACTTGATGGCCGACCTCTTTTTT (double strand) [MT68 COR15b C-repeat/DRE]”, for which the “activity on this sequence” value in data set [1] (dimer of MT68, lacZ reporter) is reported as “active”.
